Among the data in patent US6780866B2, “Analgesic composition and method” (priority 2001, dated 2004) are inhibition and ED50 values, retold here.

The test system of assay [1] is formalin-induced inflammatory pain. As to the kind of experiment: animal or person. Format: in vivo, Wistar male rats. The conditions noted are these: Rattus norvegicus, im, read-out: Inhibition rate (%).
Assay [2] relates to heat-induced tail-flick (nociceptive pain). As to the kind of experiment: animal or person. Format: in vivo, Kunming mice. The conditions noted are these: Mus musculus, im. As to the method: 320 screened mice, half male and half female, were randomly divided into 16 groups. They were not given food, only water 12 hours prior to dosing.
The heat tail flick analgesia meter includes a heat source consisting of a 12 V, 50 watt, 8.75 mm projector lamp. The light beam from the heat source was focused and directed to a point on the tail of a mouse being tested, having a distance of 1-2 mm plus ⅓ of the tail length to the tail end.
The test drugs were given intramuscularly. […] The tail-flick latencies, which were assessed in response to a noxious heat stimulus, i.e., the response time from applying radiant heat on the dorsal surface of the tail to the occurrence of tail flick, were measured and recorded at 15, 30, 45, 60, 90, 120, 150, 180 min. after dosing. For each measurement, three readings were made consecutively one minute apart, and their average was recorded as the latency. The testing on one animal would be terminated when tail-flick was not observed within 20 seconds, and the latency would be recorded as 20 seconds. The pain inhibition rate was calculated according to the following formula for the purpose of assessing the analgesia potency: […]
The results were processed with SPSS, a statistical software provided by SPSS, Inc. of Chicago, Ill., USA. Half effective dose (ED50) and half inhibition dose (ID50) were calculated with the probit method.

As for `CN1CC[C@]23c4c5ccc(O)c4O[C@H]2[C@@H](O)C=C[C@H]3[C@H]1C5.Cl` [Morphine, Morphine hydrochloride], in assay [1], the inhibition at 0.08 mg/kg is 3.4%, the inhibition at 0.15 mg/kg was determined as 7.2%, the inhibition at 0.3 mg/kg amounted to 10.2% and the inhibition at 0.6 mg/kg is 11%. Besides, the inhibition at 2.5 mg/kg in assay [1] was 34.9%. The ED50 in assay [2] (0.75 h, read-out: ED50 of morphine) amounted to 0.41 mg/kg. Moreover, in assay [2] (read-out: Inhibition rate (%)), the inhibition at 0.01 mg/kg was 13.7%, the inhibition at 0.06 mg/kg came to 32.8% and the inhibition at 0.33 mg/kg was determined as 48.1%.

What is called inhibition is the percentage by which the read-out fell short of the control. A word on the ED50: it is the dose that gives a 50% effect, or the effect in half of the subjects.
